# According to patent US20260248946A1 (TUOJIE BIOTECH SHANGHAI, published 2026):
# Where a chain is given by its changes, count along the chain named. No constants are given. Whether binding was seen depends on the method and setting.
# B1: mAb015 (antibody, V domains shown)
# VH: QVQLQQSGAELARPGASVKLSCKASGSSFTSYGINWVKQRTGQGLEWIGEIFPRSGNTYYNEKFEGKATLTADKSSSTAYMELRSLTSEDSAVYFCAKGDLGDFDYWGQGTTLTVSS
# VL: DFLMTQTPLSLPVRLGDQASISCRSSQSIVHSDGNTYFEWYLQKPGQSPKLLIYKVSNRFSGVPDRFSGSGSGTDFTLKISRVEAEDLGVYYCFQGSHVPWTFGGGTKLEIK
# notes: Mouse monoclonal antibody from hybridoma; also called 83B2G2
# B2: mAb017 (antibody, V domains shown)
# VH: QVQLQQSGAELARPGASVKLSCKASGYTFTTYGINWVKQRTGQGLEWIGEIYPRSGNIYYNEKFKGKATLTADKSSSTAYMELRSLTSEDSAVYFCARGSDYDGDFAYWGQGTLVTVSA
# VL: B1 VL with F2V, R14S, S32H, F38L, K108Q
# notes: Mouse monoclonal antibody from hybridoma; also called 86F11F6
# Molecular target: monkey CD79B on cells (monkey peripheral blood mononuclear cells / monkey B cells) (monkey)
# Test: FACS on 293F-cynoCD79B cells, antibody at 10 and 1 ug/ml
row,Binder,binding
1,B1,no binding (tested: 10ug/ml)
2,B2,no binding (tested: 10ug/ml)
